This note sets out measurements from patent US20090041783A1.

Test [1] has as its target cynomolgus monkey D1D2-human D3 chimeric GPVI-human Fc fusion protein (GPVI-FFH-hFc) (cynomolgus monkey (D1, D2) and human (D3)). The experiment in a line: ELISA on immobilised GPVI-FFH-hFc, anti-human kappa detection.
Test [2] deals with hGPVI-mL9-hFc (human (loop 9 from mouse)). The experiment in a line: ELISA of hybridoma culture supernatant on coated hGPVI-mL9-hFc (selection criterion).

These are yes or no findings as the source states them, for the method shown. Some results given as binding are weak or reduced against the parent protein; the word gives no strength.

B1: mouse-human chimeric anti-GPVI antibody (Clone No. F1232-7-1) (antibody, IgG4, V domains shown)
VH: VQLQQSGPELVRPGESVKISCKGSGYTFTDYAIHWVKLSHAKSLEWIGVISIYYDDTNYNQKFKGKATMTVDKSSSTAYMELARLTSEDSAIYYCARRRDSSGPYAMDYWGQGTSVTVSS
VL: DIVLTQSPASLAVSLGQRATISCRASESVDSYGNSFMHWYQQKPGQPPKLLIYRASNLESGIPARFSGSGSRTDFTLTINPVEADDVATYYCQQSNEDPYTFGGGTKLEIKR
In the case of B1, in test [1], the binding result was “binds”.

B2: F1257-3-1 (antibody, V domains shown)
VH: QVTLKESGPGMLQPSKTLSLTCSFSGFSLSTSGMVVSWIRQPSGKSLEWLAAIDWDGDKYYNPSLKSRLTVSKDTSNTQVFLKISSVDIADTATYYCARTPYYGYKEAYYFDYWGQGVKVTVSS
VL: DIQMTQSPASLSASLEEIVTITCKASRAIDDYLSWYQQKPGKSPQLLIYDATSLADGVPSRFSGSRSGTQYSLKISRPQVDDSGIYYCLQSYSTPWTFGGGTKLDLKR
In the case of B2, the binding result in test [2] is on record as “no binding (tested: absorbance equal to or less than 0.5)”.
